# System: OVCAR-8 cells
# Assay: Drug-siRNA combination screen: 346-compound anticancer library at 100 nM, CCK-8 viability
smiles,measurement,value
COC(=O)[C@H](CCCN=C(N)N)NS(=O)(=O)c1ccc(C)cc1 [TAME],Score (sum of observed SD values for 18 genes),−1.98 SD

# Source: patent publication US11946094B2, “Combination therapies and methods of use thereof” (Augusta University Research Institute, Inc., priority 2017, dated 2024)
